PubChem BioAssay AID1508597, Cure First | 2020
Shown is an unselected part of about 2,100 deposited reagents. 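Calls flag viability under 80% in either arm, not effects specific to rucaparib; the reference for percent is not stated.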 A number with no mark means an inactive call. Not stated in the record: the 100% reference.

Purpose: 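Knock-downs altering ovarian cancer cell survival with or without PARP inhibitor rucaparib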 (primary screen)
System: human ovarian carcinoma lines grown from tumours: OCI-P5x (papillary serous) and OCI-C5x (clear cell)
Knock-down reagent: siRNA pool against human genes, 1.25 pmol siRNA per well
Duration: 72 h or 96 h, depending on the cell culture
Treatment: rucaparib 20 µM (about IC30) or vehicle, present until read-out
Read-out: 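Luminescent ATP-based viability assay read 72 or 96 h after transfection, depending on culture, given as normalised percent viability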
Scale: viability, normalised: higher = more viable cells remaining
Call rule: 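a well counts as a hit if its normalised viability is under 80 percent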
Meaning of the calls: active = viability under 80%; inactive = viability 80% or more

How did the screen score OGG1 (8-oxoguanine DNA glycosylase), rucaparib or vehicle Rucaparib, cell line OCI-C5x (clear cell), technical replicate 1?
viability, normalised (%): 69.8 (active)

For OGG1 (8-oxoguanine DNA glycosylase), rucaparib or vehicle Rucaparib, cell line OCI-C5x (clear cell), technical replicate 2, what was measured?
viability, normalised (%): 58.8 (active)

What is on record for OGG1 (8-oxoguanine DNA glycosylase), rucaparib or vehicle Rucaparib, cell line OCI-C5x (clear cell), technical replicate 3?
viability, normalised (%): 45.7 (active)

For OGG1 (8-oxoguanine DNA glycosylase), rucaparib or vehicle Rucaparib, cell line OCI-P5x (serous), technical replicate 1, how do the results read?
viability, normalised (%): 97.6

With OGG1 (8-oxoguanine DNA glycosylase), rucaparib or vehicle Rucaparib, cell line OCI-P5x (serous), technical replicate 2, how do the results read?
viability, normalised (%): 85.6

Which result is listed for OGG1 (8-oxoguanine DNA glycosylase), rucaparib or vehicle Rucaparib, cell line OCI-P5x (serous), technical replicate 3?
viability, normalised (%): 68.9 (active)

What is on record for OGG1 (8-oxoguanine DNA glycosylase), rucaparib or vehicle Vehicle, cell line OCI-C5x (clear cell), technical replicate 1?
viability, normalised (%): 74.6 (active)

Which result is listed for OGG1 (8-oxoguanine DNA glycosylase), rucaparib or vehicle Vehicle, cell line OCI-C5x (clear cell), technical replicate 2?
viability, normalised (%): 58.7 (active)

For OGG1 (8-oxoguanine DNA glycosylase), rucaparib or vehicle Vehicle, cell line OCI-C5x (clear cell), technical replicate 3, how do the results read?
viability, normalised (%): 56.9 (active)

What is on record for OGG1 (8-oxoguanine DNA glycosylase), rucaparib or vehicle Vehicle, cell line OCI-P5x (serous), technical replicate 1?
viability, normalised (%): 92

For OGG1 (8-oxoguanine DNA glycosylase), rucaparib or vehicle Vehicle, cell line OCI-P5x (serous), technical replicate 2, what was measured?
viability, normalised (%): 89.1

For OGG1 (8-oxoguanine DNA glycosylase), rucaparib or vehicle Vehicle, cell line OCI-P5x (serous), technical replicate 3, what does the deposit list?
viability, normalised (%): 87.4

With DDX19B (DEAD-box helicase 19B), rucaparib or vehicle Rucaparib, cell line OCI-C5x (clear cell), technical replicate 1, how do the results read?
viability, normalised (%): 52.9 (active)

What is on record for DDX19B (DEAD-box helicase 19B), rucaparib or vehicle Rucaparib, cell line OCI-C5x (clear cell), technical replicate 2?
viability, normalised (%): 64.7 (active)

With DDX19B (DEAD-box helicase 19B), rucaparib or vehicle Rucaparib, cell line OCI-C5x (clear cell), technical replicate 3, how do the results read?
viability, normalised (%): 47.7 (active)

Which result is listed for DDX19B (DEAD-box helicase 19B), rucaparib or vehicle Rucaparib, cell line OCI-P5x (serous), technical replicate 1?
viability, normalised (%): 61.3 (active)

What did the screen give for DDX19B (DEAD-box helicase 19B), rucaparib or vehicle Rucaparib, cell line OCI-P5x (serous), technical replicate 2?
viability, normalised (%): 61.1 (active)

For DDX19B (DEAD-box helicase 19B), rucaparib or vehicle Rucaparib, cell line OCI-P5x (serous), technical replicate 3, how do the results read?
viability, normalised (%): 57.9 (active)

What did the screen give for DDX19B (DEAD-box helicase 19B), rucaparib or vehicle Vehicle, cell line OCI-C5x (clear cell), technical replicate 1?
viability, normalised (%): 41.1 (active)

With DDX19B (DEAD-box helicase 19B), rucaparib or vehicle Vehicle, cell line OCI-C5x (clear cell), technical replicate 2, what was measured?
viability, normalised (%): 44.5 (active)

For DDX19B (DEAD-box helicase 19B), rucaparib or vehicle Vehicle, cell line OCI-C5x (clear cell), technical replicate 3, how do the results read?
viability, normalised (%): 37.9 (active)

For DDX19B (DEAD-box helicase 19B), rucaparib or vehicle Vehicle, cell line OCI-P5x (serous), technical replicate 1, what does the deposit list?
viability, normalised (%): 49.8 (active)

How did the screen score DDX19B (DEAD-box helicase 19B), rucaparib or vehicle Vehicle, cell line OCI-P5x (serous), technical replicate 2?
viability, normalised (%): 52.4 (active)

How did the screen score DDX19B (DEAD-box helicase 19B), rucaparib or vehicle Vehicle, cell line OCI-P5x (serous), technical replicate 3?
viability, normalised (%): 56.7 (active)
